Data source: PubChem BioAssay AID1259261 (Sanger Institute, 2017)
The deposit covers 794 reagents; shown is a random part of them. 10 of all reagents (1.3%) count as active. 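Calls reflect knock-down alone without drug; synergy scores with BYL719, cetuximab or trametinib do not affect calls.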 Further read-outs or replicates are left out here. Not given: the amount of reagent, the time to read-out.

Aim: 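Find kinase silencing that cuts viability alone or with anchor drugs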 (primary screen)
Cell system: HCC2998 human colorectal cancer cells
Knock-down reagent: siRNA pool against human genes
Challenge: anchor drugs BYL719 1 µM, cetuximab 5 µg/ml or trametinib 10 nM, each compared with DMSO vehicle
Measured: 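Viability as fraction of non-targeting control plus robust z-score without drug; synergy scores compare knock-down plus drug against each alone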
Scale: viability z-score, knock-down alone: higher = more viable cells than controls
Active means: 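a knock-down is called essential if its robust z-score without drug is under -3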
Calls: active = essential; inactive = no change

Which result is listed for TNIK?
viability z-score, knock-down alone: 0.417; Outcome: inactive

How did the screen score NUAK2?
viability z-score, knock-down alone: -0.314; Outcome: inactive

With PRKG1, what does the deposit list?
viability z-score, knock-down alone: 0.189; Outcome: inactive

How did the screen score STK31?
viability z-score, knock-down alone: -0.135; Outcome: inactive

With PIK3R1, how do the results read?
viability z-score, knock-down alone: 0.0203; Outcome: inactive

With EPHB1, what was measured?
viability z-score, knock-down alone: -0.213; Outcome: inactive

Copied from the listing for reference:
TNIK | viability z-score, knock-down alone: 0.417; Outcome: inactive
NUAK2 | viability z-score, knock-down alone: -0.314; Outcome: inactive

The list goes on:
What did the screen give for IRAK1?
viability z-score, knock-down alone: -0.205; Outcome: inactive

With PIM3, what does the deposit list?
viability z-score, knock-down alone: 0.026; Outcome: inactive

For POLR2B, what was measured?
viability z-score, knock-down alone: -2.94; Outcome: inactive

For MVK, what does the deposit list?
viability z-score, knock-down alone: 0.324; Outcome: inactive

For IRAK2, what was measured?
viability z-score, knock-down alone: 1.21; Outcome: inactive

For PRKCD, how do the results read?
viability z-score, knock-down alone: -0.00524; Outcome: inactive

With LMBR1, what was measured?
viability z-score, knock-down alone: -0.081; Outcome: inactive

For PAK4, what does the deposit list?
viability z-score, knock-down alone: -0.878; Outcome: inactive

With BRWD1, what was measured?
viability z-score, knock-down alone: 0.376; Outcome: inactive

For MPP1, how do the results read?
viability z-score, knock-down alone: 0.609; Outcome: inactive

How did the screen score RBM10?
viability z-score, knock-down alone: -3.01; Outcome: active

How did the screen score TLK2?
viability z-score, knock-down alone: 1.15; Outcome: inactive

With DMPK, how do the results read?
viability z-score, knock-down alone: 1.09; Outcome: inactive
